Residue numbers refer to the chain shown, from its start. Results are given in words; binding and its absence hold for the method and conditions named. Some binding calls cover weakened binding; strength is not graded here. For some of these results: Sequences can lack the tags named with a protein. Each block holds one binder with its values, some of them ahead of it.
What was measured:
[1] = molecular target: T1, Murine B7-H4 ECD-Flag-His10 (monomeric) (mouse) (UniProt Q7TSP5); test: ELISA, absorbance 450 nm; x axis printed as antigen concentration (µg/ml)
T1 sequence (looked up): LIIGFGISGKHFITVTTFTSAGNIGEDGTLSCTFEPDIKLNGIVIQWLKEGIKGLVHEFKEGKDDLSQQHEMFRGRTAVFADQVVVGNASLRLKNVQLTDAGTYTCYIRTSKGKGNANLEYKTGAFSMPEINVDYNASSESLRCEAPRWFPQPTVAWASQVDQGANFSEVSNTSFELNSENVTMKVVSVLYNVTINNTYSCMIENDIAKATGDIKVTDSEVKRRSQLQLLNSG

Chains of the proteins cited; added tags and fusions are not shown.
UniProt Q9NZQ7: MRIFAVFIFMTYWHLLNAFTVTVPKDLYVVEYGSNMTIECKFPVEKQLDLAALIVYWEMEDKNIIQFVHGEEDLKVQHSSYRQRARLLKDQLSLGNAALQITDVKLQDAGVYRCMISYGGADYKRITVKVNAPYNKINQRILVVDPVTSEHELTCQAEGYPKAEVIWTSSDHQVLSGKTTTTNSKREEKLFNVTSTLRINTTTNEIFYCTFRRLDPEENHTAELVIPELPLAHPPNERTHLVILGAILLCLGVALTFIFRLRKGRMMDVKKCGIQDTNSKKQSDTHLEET

[2] = molecular target: T2, Human B7-H4 ECD-Flag-His10 (monomeric) (human) (UniProt Q7Z7D3); test: as above
T2 sequence: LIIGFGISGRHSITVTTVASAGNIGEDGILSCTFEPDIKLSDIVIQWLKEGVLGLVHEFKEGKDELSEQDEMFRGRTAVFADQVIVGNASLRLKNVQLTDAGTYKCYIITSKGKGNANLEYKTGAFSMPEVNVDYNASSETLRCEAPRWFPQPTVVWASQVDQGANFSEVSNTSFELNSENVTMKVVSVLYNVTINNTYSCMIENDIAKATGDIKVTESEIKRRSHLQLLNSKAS

[3] = molecular target: T1, Murine B7-H4 ECD-Flag-His10 (monomeric) (mouse); test: ELISA
[4] = molecular target: T2, Human B7-H4 ECD-Flag-His10 (monomeric) (human); test: ELISA
[5] = molecular target: T2, Human B7-H4 ECD-Flag-His10 (monomeric) (human); test: ELISA, absorbance 450 nm, antigen human B7-H4(ECD) F10H; x axis Antigen Conc. (µg/ml)
[6] = molecular target: human B7-H4 on cells (human) (UniProt Q7Z7D3); test: on-cell western (Odyssey) on fixed cells, with and without transfection with full length B7-H4 vector
[7] = molecular target: human B7-H4 on cells (human) (UniProt Q7Z7D3); test: on-cell western, OVCAR4 cells
huB7-H1 (human) = huB7-H1 (human) (UniProt Q9NZQ7); test: ELISA, absorbance 450 nm, Human B7H1 (ECD) F10H; x axis printed as antigen concentration (nM)
[8] = molecular target: recombinant human B7-H4 (tag format not stated) (human) (UniProt Q7Z7D3); test: ELISA, Maia format mAb
[9] = molecular target: recombinant cynomolgus monkey B7-H4 (tag format not stated) (cynomolgus monkey); test: ELISA, Maia format mAb
[10] = molecular target: T3, recombinant mouse B7-H4 (tag format not stated) (mouse) (UniProt Q7TSP5); test: ELISA, Maia format mAb
T3 sequence (looked up): T1 sequence (looked up)

[11] = molecular target: recombinant cynomolgus monkey B7-H4 (tag format not stated) (cynomolgus monkey); test: ELISA, Maia format mAb (GLQ)
[12] = molecular target: recombinant cynomolgus monkey B7-H4 (tag format not stated) (cynomolgus monkey); test: ELISA, Maia format mAb (GLY)

B1: ZY0EQD-E02 human IgG1-TM (antibody, V domains shown)
VH: QVQLQQWGAGLLKPSETLSLTCAVYGGSFSGYYWNWIRQPPGKGLEWIGEINHSGSTSYNPSLKSRVTISVDTSKNQFSLKLSSVTAADTAVYYCARVLYNWNVDSWGQGTLVTVSS
VL: DIQMTQSPSSLSASVGDRVTITCRASQDIRNDVGWYQQKPGKAPKRLIYAASRLQSGVPSRFSGSGSGTEFTLTISSLQPEDFATYYCLQHNSYPRTFGQGTKVEIK
binding [1]: binds | binding [2]: binds | binding [3]: binds | binding [4]: binds

B2: ZY0EQD-E02 murine IgG1 (antibody, V domains shown)
VH: B1 VH
VL: B1 VL
binding [1]: binds | binding [2]: binds | binding [3]: binds | binding [4]: binds | binding [5]: binds

B4: E02-maia (ZY0EQD_E02, wildtype, Maia format human IgG1) (antibody, V domains shown)
VH: B1 VH
VL: DIQMTQSPSSLSASVGDRVTITCRASQDIRNDVGWYQQKPGKAPKRLIYAASRLQSGVPSRFSGSGSGTEFTLTISSLQPEDFATYYCLQHNSYPRTFGQGTKVEIKR
binding (huB7-H1 (human)): no binding (tested: about 600 nM (antigen)) | binding [8]: binds | binding [9]: binds | binding [10]: binds

Further lines, with some results ahead:

binding [6]: binds | binding [7]: binds
B3: ZY0EQD-E02 (isotype format not stated) (antibody, V domains shown)
VH: B1 VH
VL: B1 VL

binding [11]: binds
B5: E02-GLQ-maia (antibody, human IgG1, kappa, V domains shown)
VH: B1 VH with T21A, A23T, N52Q
VL: B4 VL
binding (huB7-H1 (human)): no binding (tested: about 600 nM (antigen))

binding [12]: binds
B6: E02-GLY-maia (antibody, human IgG1, kappa, V domains shown)
VH: B1 VH with T21A, A23T, N52Y
VL: B4 VL
binding (huB7-H1 (human)): no binding (tested: about 600 nM (antigen))
